According to publication PMC6148290, “Endogenous metabolites of vitamin E limit inflammation by targeting 5-lipoxygenase” (Nature Communications, 2018):
No constants are given. Whether binding was seen depends on the method and setting. In cells and extracts the contact can be indirect. Some results given as binding are weak or reduced against the parent protein; the word gives no strength.

Biological target: T1, 5-LO-activating protein (human (endogenous in monocytes)) (UniProt P20292)
T1 sequence: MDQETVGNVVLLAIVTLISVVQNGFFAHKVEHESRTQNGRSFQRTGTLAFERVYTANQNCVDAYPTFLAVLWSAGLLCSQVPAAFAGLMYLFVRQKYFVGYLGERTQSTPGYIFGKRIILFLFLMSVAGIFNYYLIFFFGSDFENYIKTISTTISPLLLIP
Assay: proximity ligation; in situ in human monocytes on coverslips; pre-incubated with vehicle (0.1% DMSO), 3 µM α-T-13′-COOH (4a) or δ-TE-13′-COOH (4h) for 15 min at 37 °C, stimulated with A23187 ([…], 10 min, 37 °C), fixed with paraformaldehyde, permeabilised with acetone; antibodies against 5-LO and FLAP; signal possible when the two are <40 nm apart

binding: binds
B1: 5-lipoxygenase (enzyme, UniProt P09917 1-674)
chain: MPSYTVTVATGSQWFAGTDDYIYLSLVGSAGCSEKHLLDKPFYNDFERGAVDSYDVTVDEELGEIQLVRIEKRKYWLNDDWYLKYITLKTPHGDYIEFPCYRWITGDVEVVLRDGRAKLARDDQIHILKQHRRKELETRQKQYRWMEWNPGFPLSIDAKCHKDLPRDIQFDSEKGVDFVLNYSKAMENLFINRFMHMFQSSWNDFADFEKIFVKISNTISERVMNHWQEDLMFGYQFLNGCNPVLIRRCTELPEKLPVTTEMVECSLERQLSLEQEVQQGNIFIVDFELLDGIDANKTDPCTLQFLAAPICLLYKNLANKIVPIAIQLNQIPGDENPIFLPSDAKYDWLLAKIWVRSSDFHVHQTITHLLRTHLVSEVFGIAMYRQLPAVHPIFKLLVAHVRFTIAINTKAREQLICECGLFDKANATGGGGHVQMVQRAMKDLTYASLCFPEAIKARGMESKEDIPYYFYRDDGLLVWEAIRTFTAEVVDIYYEGDQVVEEDPELQDFVNDVYVYGMRGRKSSGFPKSVKSREQLSEYLTVVIFTASAQHAAVNFGQYDWCSWIPNAPPTMRAPPPTAKGVVTIEQIVDTLPDRGRSCWHLGAVWALSQFQENELFLGMYPEEHFIEKPVKEAMARFRKNLEAIVSVIAERNKKKQLPYYYLSPDRIPNSVAI
